Results on 61 molecules are retold here after PubChem BioAssay AID2685 (National Center for Advancing Translational Sciences (NCATS), 2010).

The other results are listed elsewhere or left out. These are further read-outs of the screen, such as a control signal, another cell line or another target. No call is given for them. Most of these compounds were active or inconclusive in the main read-out, so they are no random draw. Words in brackets tell the shape of the fitted curve; partial curves, single points and poor fits give uncertain potencies.

The nature of this assay: qHTS Assay for Lipid Storage Modulators in Drosophila S3 Cells.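 As to cell number change: cells counted by Cell Tracker Red CMTPX staining in the red channel.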 The conditions noted are these: BODIPY lipid droplet fluorescence, 18-24 h; for cell number change: measured here: cell count max response, cells fed with added oleic acid. The gist of the method:
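Laser-scanning cytometry quantifies lipid droplet accumulation (500–530 nm total intensity; droplet/cell object ratio) in oleic acid-fed (400 uM added) Drosophila S3 cells treated with a concentration series. 20 uM Triacsin C defined 100% inhibition.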
A general note: Quantitative high-throughput screening tests each substance at several concentrations.

The mark [1] stands for this setting: measured here: lipid fluorescence (Fed channel) AC50, cells fed with added oleic acid.
Setting [2] is: measured here: cell number channel AC50, cells fed with added oleic acid.

For `N#CCCn1cnc2ccccc21`, the cell number change is -107%.
On to `COc1ccc(Cn2nnnc2C(c2ccccc2Cl)N2CCN(C)CC2)cc1` (centres undefined), for which the cell number change was -6.9%. Also, under setting [1], the AC50 – broadly, the midpoint of the concentration-response curve, whichever way the signal moves – was 29.1 µM [falling, single point].
Consider `CCNC(=S)N=Nc1c(O)[nH]c2ccc([N+](=O)[O-])cc12`, for which the cell number change turned out to be 14.1%. Besides, the AC50 under setting [2] is 1.84 µM [rising, single point].
Consider `O=C(CNS(=O)(=O)c1ccc(Br)cc1)NCc1cccnc1`, for which the cell number change was found to be 27%. Moreover, the AC50 under setting [1] is 29.1 µM [rising, single point].
For the molecule `CCCCC(=O)Nc1ccc(NC(=O)c2ccc([N+](=O)[O-])cc2Cl)cc1OC`, the cell number change was -16.7%. The AC50 under setting [2] is 4.61 µM [rising, partial curve, poor fit]. The AC50 under setting [1] was 9.2 µM [rising, partial curve].
As to `Cc1c(N2C(=O)C(=O)/C(=C(/O)c3ccc(Cl)cc3)C2c2ccccc2)c(=O)n(-c2ccccc2)n1C` (centres undefined), the cell number change is -7.89%. Further, the AC50 under setting [1] is 0.092 µM [falling, full curve, poor fit].
With `CCc1nc(SCc2ccc(OCC(C)C)cc2)n[nH]1`, the cell number change was -53.8%. The AC50 under setting [2] was 16.4 µM [falling, partial curve]. In addition, the AC50 under setting [1] was 3.66 µM [falling, full curve].
As to `c1ccc(Cc2nc3ccccc3[nH]2)cc1`, the cell number change came to 3.58%.
In the case of `O=C(CCCn1cncn1)N1CCCC(Nc2ccc(F)cc2)C1` (centres undefined), the cell number change amounted to 8.96%. Further, the concentration at half-maximal activity (AC50) under setting [1] was 0.00461 µM [falling, full curve, poor fit].
`Nn1c(SCC(=O)NCCc2ccc(F)cc2)nnc1C1CCCCC1`: the cell number change was -6.33%. Moreover, the AC50 under setting [1] is 0.013 µM [rising, full curve, poor fit].
As to `CC(C)(C)OC(=O)N1CCC(C(=O)NCC2CCCO2)CC1` (centres undefined), the cell number change turned out to be 8.99%. For the same molecule, the AC50 under setting [1] is 3.26 µM [rising, full curve, poor fit].
Consider `Cc1nn(-c2ccccc2)c(C)c1-c1nnc(-c2c(C)nn(-c3ccccc3)c2C)o1`, for which the cell number change was -41.3%. The AC50 under setting [2] was 4.11 µM [falling, partial curve, poor fit]. Besides, the AC50 under setting [1] was 3.66 µM [falling, partial curve].
In the case of `CCCn1c(N/N=C(C)\C=C\c2ccccc2)nc2c1c(=O)[nH]c(=O)n2C`, the cell number change is -24.7%. In addition, the AC50 under setting [2] is 0.184 µM [rising, full curve]. Further, the AC50 under setting [1] was 0.184 µM [rising, full curve, poor fit].
Regarding `CC(C)(C)NC(=S)NNC(=O)c1ccc2ncccc2c1`, the cell number change is -15.1%. Besides, the AC50 under setting [2] is 0.82 µM [falling, single point].
Regarding `CCc1noc(C)c1C(=O)Nc1cc(S(=O)(=O)N2CCCCC2)ccc1N(C)C`, the cell number change stood at 17.7%. Moreover, under setting [1], the AC50 is 18.4 µM [rising, single point].
Turning to `O=C(Nc1ccc(-c2nnc3n2CCCCC3)cc1)c1cc2ccccc2o1`, the AC50 was 0.82 µM [rising, partial curve] under setting [2] and 0.326 µM [rising, full curve] under setting [1].
With `O=C(/C=C/c1ccc(Cl)cc1Cl)N1CCN(c2ccc([N+](=O)[O-])c(N3CCOCC3)c2)CC1`, the cell number change is 6.25%. In addition, the AC50 under setting [1] is 0.116 µM [rising, full curve, poor fit].
For `CCN(CC)S(=O)(=O)c1ccc(C)c(NC(=O)Cn2c(=O)cnc3ccccc32)c1`, the cell number change was -2.11%. Under setting [1], the AC50 is 6.51 µM [rising, single point].
Turning to `COc1ccc(Cl)cc1N/C(N)=N/c1nc(C)cc(=O)[nH]1`, the cell number change came to 62.9%. Further, the AC50 under setting [2] is 18.4 µM [rising, single point].
Turning to `CCOc1ccccc1NC(=O)CS(=O)(=O)c1cn(CC(=O)N2CCOCC2)c2ccccc12`, the cell number change was -19.3%. The AC50 under setting [1] is 29.1 µM [falling, single point].
Regarding `CCn1c(Cc2ccccc2)nnc1SCC(=O)Nc1nnc(-c2ccccc2)s1`, the cell number change was -2.55%. For the same molecule, under setting [1], the AC50 was 6.51 µM [rising, full curve, poor fit].
With `O=C(Nc1cccc(C(=O)N2CCOCC2)c1)c1cccnc1`, the AC50 under setting [2] is 0.00651 µM [falling, full curve, poor fit].
With `COc1cc(C(=O)Nc2nnc(SC)s2)c([N+](=O)[O-])cc1OC`, the cell number change is 0.228%. Further, the AC50 under setting [2] was 1.3 µM [falling, partial curve]. The concentration at half-maximal activity (AC50) under setting [1] is 3.66 µM [falling, single point].
For `O=C(/C=C/c1ccccc1)OCCCCN=C1NS(=O)(=O)c2ccccc21`, the cell number change was -8.92%.
In the case of `O=C(CN1C(=O)COc2ccccc21)NCc1ccc(C(=O)O)cc1`, the cell number change is -62.7%. Further, the AC50 under setting [2] is 4.61 µM [falling, full curve]. The AC50 under setting [1] was 23.1 µM [falling, single point].
As for `CCOC(=O)Cn1c(C)nc2ccccc21`, the cell number change was -10.9%. Moreover, the AC50 under setting [2] was 0.13 µM [falling, full curve, poor fit].
For the molecule `CCN1C(=O)C(=Cc2cccc(OC)c2Oc2ccc([N+](=O)[O-])cc2[N+](=O)[O-])SC1=S`, the cell number change came to 4.13%. The AC50 under setting [1] was 4.11 µM [falling, single point].
Take `c1ccc(-c2nc3cc4ccccc4cc3[nH]2)nc1`: the cell number change amounted to 118%. Besides, under setting [2], the AC50 is 1.64 µM [rising, full curve]. For the same molecule, the AC50 under setting [1] is 2.31 µM [rising, full curve].
In the case of `COc1cc(/C=C/C(=O)c2ccc(F)cc2)cc(OC)c1OC`, the cell number change is -16.6%. Under setting [1], the AC50 is 18.4 µM [falling, single point].
In the case of `COc1cccc(C(=O)NCCSCc2c(F)cccc2Cl)c1`, the cell number change was found to be 2.55%.
Consider `O=C(CSc1nncs1)NC1CCCc2ccccc21` (centres undefined), for which the cell number change is -49.8%. For the same molecule, the AC50 under setting [1] is 32.6 µM [falling, partial curve, poor fit].
On to `Cc1nc2nc(-c3ccccc3)cn2nc1C`, for which the cell number change was 11.9%. Further, the AC50 under setting [1] is 29.1 µM [falling, single point].
As for `CCOc1ccc(S(=O)(=O)N(CC(=O)O)c2ccc(C)cc2)cc1`, the cell number change was -161%.
Consider `COc1ccc(C(=O)CCC(=O)N2CCN(c3ccc([N+](=O)[O-])cc3)CC2)cc1`, for which the cell number change came out at 5.07%.
In the case of `COc1cc(-c2nnn(CC(=O)NC3CCS(=O)(=O)C3)n2)ccc1OCc1ccccc1` (centres undefined), the cell number change was 42%. Further, under setting [2], the AC50 is 29.1 µM [rising, single point].
With `O=C(O)CCOc1ccc2c(c1)OCCO2`, the cell number change amounted to 7.35%. In addition, the AC50 under setting [1] is 0.00517 µM [falling, full curve, poor fit].
With `Brc1ccc(OCCCOc2cccc3cccnc23)cc1`, the cell number change is -8.03%. For the same molecule, the AC50 under setting [1] is 0.184 µM [rising, full curve].
For the molecule `CCN(CC)S(=O)(=O)c1cc(NC(=O)CCNC(=O)c2ccco2)ccc1C`, the cell number change was determined as 4.03%.
For `CN=c1scc(-c2ccc(Br)cc2)n1C`, the cell number change was -24.4%. Besides, the AC50 under setting [2] was 0.651 µM [falling, full curve, poor fit].
As to `CNC(=S)N1CCC(NC(=O)C23CC4CC(CC(C4)C2)C3)CC1`, the cell number change came to 5.03%. Moreover, the AC50 under setting [1] is 1.46 µM [falling, partial curve, poor fit].
With `CC1CCN(C(=O)CSc2ccc(-c3ccccc3)nn2)CC1`, the cell number change is 30.9%. Besides, under setting [2], the AC50 is 0.92 µM [rising, partial curve, poor fit].
With `COc1ccc(S(=O)(=O)n2nc(C)cc2C)cc1OC`, the cell number change is -4.56%. The AC50 under setting [1] is 29.1 µM [rising, single point].
For `Nc1ccccc1Sc1nc2ccccc2[nH]1`, the cell number change is -30%. Moreover, the AC50 under setting [1] is 29.1 µM [falling, single point].
In the case of `COc1ccc(C(CNC(=O)C(C)Oc2ccc(Br)cc2)N2CCCC2)cc1` (centres undefined), the cell number change amounted to 25%.
Regarding `COc1ccc2c(c1)C(=O)N(c1ccccc1OC)C(=O)C2(C)C`, the cell number change was 9.75%. The AC50 under setting [2] was 0.116 µM [rising, full curve, poor fit]. Besides, under setting [1], the AC50 is 0.206 µM [rising, full curve, poor fit].
For the molecule `CN(c1ccccc1C(=O)Nc1cccc(Br)c1)S(=O)(=O)c1ccccc1`, the cell number change was determined as 4.92%.
`C#CCOc1ccc2c(C)cc(=O)oc2c1`: the cell number change was -12.1%. For the same molecule, under setting [1], the AC50 was 0.116 µM [rising, full curve, poor fit].
Consider `COC(=O)C1=C(C)NC(=O)CC1c1cccc(Cl)c1Cl` (centres undefined), for which the cell number change is -40.2%. Moreover, under setting [2], the AC50 is 9.2 µM [falling, partial curve]. Besides, under setting [1], the AC50 was 5.8 µM [falling, partial curve].
On to `Cc1ccc(S(=O)(=O)NCc2ccccc2)cc1C(=O)NCCc1ccc(S(N)(=O)=O)cc1`, for which the cell number change is -5.78%. Under setting [1], the AC50 is 0.00461 µM [rising, full curve, poor fit].
For the molecule `O=C(O)CCC(=O)c1ccc2c(c1)OCCO2`, the cell number change came to 11.8%.
As to `Cc1csc(NC(=O)C2=COCCO2)n1`, the cell number change was -26.9%.
As to `NNC(=O)c1ccc([N+](=O)[O-])c(CS(=O)(=O)c2ccc(Cl)cc2)c1`, the cell number change was -36.7%. Besides, under setting [2], the AC50 was 5.17 µM [falling, full curve, poor fit]. Further, the AC50 under setting [1] is 29.1 µM [falling, single point].
Take `O=C(CSc1ccc(Cl)cc1)N1CCN(c2ncc(C(F)(F)F)cc2Cl)CC1`: the AC50 under setting [1] is 18.4 µM [rising, single point].
Turning to `CC(=O)OC1COC(N2CCc3cc([N+](=O)[O-])ccc32)C(OC(C)=O)C1OC(C)=O` (centres undefined), the cell number change turned out to be 21%. Also, the AC50 under setting [1] was 29.1 µM [rising, single point].
Consider `CN(C)S(=O)(=O)c1cccc(NC(=S)NC(=O)c2ccco2)c1`, for which the cell number change is -13.9%. Moreover, the AC50 under setting [1] was 3.26 µM [rising, partial curve, poor fit].
`Cc1c(Nc2cc(Cl)c3nonc3c2[N+](=O)[O-])c(=O)n(-c2ccccc2)n1C`: the cell number change is -89.6%. Moreover, the AC50 under setting [2] is 14.6 µM [falling, partial curve]. Besides, the AC50 under setting [1] was 4.61 µM [falling, partial curve].
`COc1cccc(C(=O)NNC(=O)C(=O)Nc2ccc(OC)cc2OC)c1`: the cell number change is -7.69%.
`COc1ccc(C2CC(=O)C=C(NCc3ccc4c(c3)OCO4)C2)cc1` (centres undefined): the cell number change came out at 1.21%. For the same molecule, the AC50 under setting [2] is 0.58 µM [rising, full curve, poor fit].
For the molecule `Cc1ccc(/C=N\NC(=O)c2csnn2)cc1`, the cell number change stood at 0.69%.
Consider `CCCS(=O)(=O)N1CCN(C(=O)c2cc(OC)cc(OC)c2)CC1`, for which the cell number change was found to be 49.1%. For the same molecule, the AC50 under setting [2] is 23.1 µM [rising, single point].
As for `CCOC(=O)C1=C(CC)OC(N)=C(C#N)C1c1ccc(F)cc1F` (centres undefined), the cell number change is -38.4%. Also, the AC50 under setting [2] was 23.1 µM [falling, single point]. For the same molecule, the AC50 under setting [1] was 29.1 µM [falling, single point].
